The target in the experiment is Nrf2-Keap1 complex (Homo sapiens, UniProt Q14145). Briefly: cell-based. The following applies: 3 h.

By UniProt entry, the sequences of proteins in these tests, tags left out.
UniProt Q14145, whole entry: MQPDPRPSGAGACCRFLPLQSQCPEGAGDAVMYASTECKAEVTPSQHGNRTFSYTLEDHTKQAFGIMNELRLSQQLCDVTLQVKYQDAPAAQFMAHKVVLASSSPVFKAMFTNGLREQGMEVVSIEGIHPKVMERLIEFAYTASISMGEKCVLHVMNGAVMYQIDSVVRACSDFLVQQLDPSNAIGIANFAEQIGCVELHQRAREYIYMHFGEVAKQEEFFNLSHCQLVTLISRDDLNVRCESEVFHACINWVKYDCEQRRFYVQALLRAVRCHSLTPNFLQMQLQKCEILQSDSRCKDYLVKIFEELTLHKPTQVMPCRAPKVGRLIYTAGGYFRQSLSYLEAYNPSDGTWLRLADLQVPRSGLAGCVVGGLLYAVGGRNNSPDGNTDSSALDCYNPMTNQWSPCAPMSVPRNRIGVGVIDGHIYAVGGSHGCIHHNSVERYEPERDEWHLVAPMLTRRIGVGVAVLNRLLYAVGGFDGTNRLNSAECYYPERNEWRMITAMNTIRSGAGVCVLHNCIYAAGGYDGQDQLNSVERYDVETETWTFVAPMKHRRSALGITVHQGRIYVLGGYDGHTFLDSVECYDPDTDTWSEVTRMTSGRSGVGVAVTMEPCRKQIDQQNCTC

Molecules are shown by their SMILES. Structures can show the parent of a compound that is named as a salt.

The values below come from patent US9200046B2, “Reporter system for high throughput screening of compounds and uses thereof” (priority 2011, dated 2015).

As to `CN(C)CCCN1c2ccccc2CCc2ccc(Cl)cc21` [CLOMIPRAMINEHYDROCHLORIDE, reference compound], the activation at 16 µM (read-out: Activation 100 nL) was 39%. In addition, the activation at 32 µM (read-out: Activation 200 nL) was found to be 0%.
